Experimental data: PubChem BioAssay AID504804 (Drosophila RNAi Screening Center, 2011)
The screen tested about 19,000 reagents; shown is an unselected part of those with a known target gene and a result. Over the whole deposit, 47 (0.25%) were called active. 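Signals are raw, not normalised; exact z-scores behind calls not deposited; actives needed confirmation, so some wells reaching 2 SD are inactive.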 A plus sign joins genes that one reagent is predicted to hit. Reagent sequences are not shown.

Purpose: 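Fly genes whose loss lessens doxorubicin-driven cell death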 (primary screen)
System: Drosophila Kc cells
Reagent: long dsRNA against Drosophila genes, 0.5 µg dsRNA per well
Timing: 96 h (48 h knock-down, then 48 h drug)
Treatment: doxorubicin 5 µg/ml for 48 h, added 48 h after dsRNA
Measured: 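Luminescent ATP counts per replicate, not normalised, reflecting viable cells after 48 h dsRNA knock-down followed by 48 h of 5 µg/ml doxorubicin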
Direction: raw ATP luminescence: higher = more viable cells, protection from doxorubicin
Active means: 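Active when both duplicate wells lie at least 2 SD above the plate mean and protection is confirmed by rescreening and independent dsRNAs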

gene knocked down	PubChem SID	raw ATP luminescence, replicate 1	raw ATP luminescence, replicate 2	Outcome
CG15522	SID104194851	45460	33100	inactive
CG17258	SID104180287	19560	19503	inactive
mtDNA-helicase (mitochondrial DNA helicase)	SID104182704	20757	37353	inactive
CG17819	SID104195071	69360	73470	inactive
CG31798	SID104181494	2.86e5	2.60e5	inactive
kuk (kugelkern)	SID104195522	41650	42890	inactive
ND-B14 (NADH dehydrogenase (ubiquinone) B14 subunit)	SID104186821	31867	67683	inactive
TwdlC (TweedleC)	SID104194541	47100	36650	inactive
sloth2 + sloth1	SID104197714	37720	46470	inactive
sloth2 + sloth1	SID104197715	49480	52900	inactive
CG34232	SID104185124	60613	69070	inactive
CG1602	SID104186393	41807	81910	inactive
CIAPIN1 (Cytokine induced apoptosis inhibitor 1)	SID104183351	85380	53897	inactive
Syt7 (Synaptotagmin 7)	SID104196922	81280	59080	inactive
Syt7 (Synaptotagmin 7)	SID104196951	72000	47140	inactive
CG13454	SID104189793	1.79e5	1.97e5	inactive
CG14079	SID104189875	51867	61100	inactive
CG31097	SID104194458	55220	49770	inactive
CG2921	SID104184116	79970	74407	inactive
ND-15 (NADH dehydrogenase (ubiquinone) 15 kDa subunit)	SID104180103	66767	62680	inactive
CG14147	SID104189941	1.01e5	1.00e5	inactive
CG2104	SID104192096	71930	61180	inactive
c11.1	SID104198541	3.17e5	3.41e5	inactive
SAK (Sak kinase)	SID104191671	64853	66453	inactive
CAH13 (Carbonic anhydrase 13)	SID104185920	34320	76157	inactive
CG31751	SID104182256	42497	43487	inactive
CG31751	SID104182257	45153	40587	inactive
CG10561	SID104181860	88980	66053	inactive
hrm (hermes)	SID104184645	58400	56917	inactive
CG17834	SID104182429	1.33e5	93073	inactive
CG12516	SID104194316	78560	47730	inactive
CG31817	SID104181329	2.87e5	2.87e5	inactive
CG31817	SID104181330	2.97e5	2.86e5	inactive
CG40498	SID104187578	1.90e5	1.38e5	inactive
CG12590	SID104192008	67537	65573	inactive
CG31515	SID104193402	2.56e5	2.31e5	inactive
Sin1 (SAPK-interacting protein 1)	SID104185757	55610	40600	inactive
mld (molting defective)	SID104193473	1.06e5	1.27e5	inactive
mld (molting defective)	SID104194414	58340	46080	inactive
CG46385	SID104186217	21447	21517	inactive
CG46385	SID104186349	36777	64437	inactive
Act88F (Actin 88F)	SID104193897	91030	69760	inactive
CG17726	SID104195047	1.71e5	2.08e5	inactive
l(2)05287 (lethal (2) 05287)	SID104181943	72770	61740	inactive
l(2)05287 (lethal (2) 05287)	SID104181944	61770	54060	inactive
2mit	SID104193986	63060	60080	inactive
2mit	SID104195016	62580	64050	inactive
CG43163	SID104190537	81177	1.03e5	inactive
CG43163	SID104190540	90457	93143	inactive
CG32829	SID104180753	3.45e5	3.21e5	inactive
spz5 (spatzle 5)	SID104188437	74050	60817	inactive
CG9626	SID104196317	55997	29587	inactive
scpr-A + scpr-C	SID104195529	63180	36393	inactive
U2af38 (U2 small nuclear riboprotein auxiliary factor 38)	SID104180588	69290	50750	inactive
CG12177	SID104199229	3.51e5	3.20e5	inactive
Jon25Bi (Jonah 25Bi)	SID104183226	26377	29983	inactive
CG17717	SID104197922	28950	38910	inactive
pug (pugilist)	SID104196828	58950	61170	inactive
CG5104	SID104191557	79577	69673	inactive
CG13814 (retired record)	SID104189861	67720	66787	inactive
CG12104	SID104188046	47160	58630	inactive
nw (narrow)	SID104186541	74777	63643	inactive
CG10340	SID104194024	48690	52020	inactive
Vha36-1 (Vacuolar H[+] ATPase 36kD subunit 1)	SID104186890	69687	65573	inactive
NimB1 (Nimrod B1)	SID104181672	80687	59733	inactive
CG33253	SID104199339	4.19e5	3.59e5	inactive
CG33253	SID104199845	4.53e5	3.43e5	inactive
CG9825	SID104184361	49817	56730	inactive
Act57B (Actin 57B)	SID104183834	83417	75843	inactive
CG4382	SID104182535	40993	72430	inactive
Grx1t (Glutaredoxin 1, testis-specific)	SID104184322	48513	50187	inactive
Brd7-9 (Bromodomain containing 7/9)	SID104182809	1.02e5	64957	inactive
comm (commissureless)	SID104191128	70403	56703	inactive
Mlh1	SID104187265	69030	52713	inactive
Zir (Zizimin-related)	SID104180099	1.13e5	76253	inactive
CG10339	SID104183857	46697	55343	inactive
bard	SID104194588	52190	64790	inactive
mud (mushroom body defect)	SID104198811	2.59e5	2.68e5	inactive
CkIIalpha-i3 (CKII-alpha subunit interactor-3)	SID104188443	80210	87017	inactive
lt (light)	SID104183551	71340	74373	inactive
trn (tartan)	SID104191199	72120	70497	inactive
CG42580	SID104200189	1.68e5	1.93e5	inactive
CG11997	SID104194256	66977	57413	inactive
CG43339 + CG43338	SID104182258	75657	61573	inactive

5 entries from above, set out differently:
mld (molting defective) [SID104193473]
- raw ATP luminescence, replicate 1: 1.06e5
- raw ATP luminescence, replicate 2: 1.27e5
- Outcome: inactive

mld (molting defective) [SID104194414]
- raw ATP luminescence, replicate 1: 58340
- raw ATP luminescence, replicate 2: 46080
- Outcome: inactive

CG46385 [SID104186217]
- raw ATP luminescence, replicate 1: 21447
- raw ATP luminescence, replicate 2: 21517
- Outcome: inactive

CG46385 [SID104186349]
- raw ATP luminescence, replicate 1: 36777
- raw ATP luminescence, replicate 2: 64437
- Outcome: inactive

Act88F (Actin 88F) [SID104193897]
- raw ATP luminescence, replicate 1: 91030
- raw ATP luminescence, replicate 2: 69760
- Outcome: inactive
